PubChem BioAssay AID1159584 | Peter MacCallum Cancer Centre – 2016

Purpose: 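Genes that CDH1-null MCF10A cells selectively depend on to survive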 (primary screen)
System: human MCF10A breast epithelial cells, parental and CDH1-null
Reagent: siRNA against human genes
Detection: 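ATP luminescence (CellTiter-Glo) viability per line relative to mean mock wells over all plates, and the ratio of CDH1-null to parental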
Direction: CDH1-null / parental viability ratio: higher = CDH1-null cells survive relatively better than parental; CDH1-null viability vs mock: higher = more viable CDH1-null cells; parental viability vs mock: higher = more viable parental cells
The deposit covers about 18,000 reagents; this is a random part of them. Reagents against one gene are numbered here. No sequences are given here. Not given: the amount of reagent, the time to read-out.

gene knocked down	siRNA no.	CDH1-null / parental viability ratio	CDH1-null viability vs mock (fraction of mock)	parental viability vs mock (fraction of mock)
SYTL1 (synaptotagmin like 1)	1	0.78	0.5	0.64
BUB1 (BUB1 mitotic checkpoint serine/threonine kinase)	1	0.98	0.8	0.82
KRTAP11-1 (keratin associated protein 11-1)	1	0.79	0.84	1.07
MT2A (metallothionein 2A)	1	0.87	0.59	0.68
ACTL7A (actin like 7A)	1	1.52	0.94	0.62
SLC1A5	1	1.12	0.76	0.68
MDGA2 (MAM domain containing glycosylphosphatidylinositol anchor 2)	1	0.73	0.62	0.85
ZNF826P (zinc finger protein 826, pseudogene)	1	1.11	0.84	0.76
FBXO40 (F-box protein 40)	1	0.93	0.82	0.88
CCDC97 (coiled-coil domain containing 97)	1	1.04	0.79	0.76
DDX6 (DEAD-box helicase 6)	1	1.02	1.04	1.02
PSTPIP2 (proline-serine-threonine phosphatase interacting protein 2)	1	1.25	0.65	0.52
GLYATL1 (glycine-N-acyltransferase like 1)	1	1.04	0.99	0.95
KRT14 (keratin 14)	1	1.44	0.49	0.34
DDX39B (DExD-box helicase 39B)	1	0.68	0.62	0.91
RPS14 (ribosomal protein S14)	1	1.23	0.32	0.26
S1PR3 (sphingosine-1-phosphate receptor 3)	1	1.45	0.96	0.66
S1PR3 (sphingosine-1-phosphate receptor 3)	2	0.84	0.92	1.1
FZD2 (frizzled class receptor 2)	1	1.28	0.87	0.68
TFAM (transcription factor A, mitochondrial)	1	1.17	1.24	1.06
B9D2 (B9 domain containing 2)	1	0.81	0.83	1.02
TFF1 (trefoil factor 1)	1	1.35	0.96	0.71
ARHGEF16 (Rho guanine nucleotide exchange factor 16)	1	0.92	0.6	0.65
NUDT18 (nudix hydrolase 18)	1	1	1.04	1.04
H4C11 (H4 clustered histone 11)	1	0.92	0.48	0.52
ATAD3C (ATPase family AAA domain containing 3C)	1	1.03	0.62	0.6
CLDN18 (claudin 18)	1	1.1	0.86	0.78
TMEM184C (transmembrane protein 184C)	1	0.97	0.88	0.91

2 entries from above, reformatted.
TFF1 (trefoil factor 1)
- CDH1-null / parental viability ratio: 1.35
- CDH1-null viability vs mock (fraction of mock): 0.96
- parental viability vs mock (fraction of mock): 0.71

ARHGEF16 (Rho guanine nucleotide exchange factor 16)
- CDH1-null / parental viability ratio: 0.92
- CDH1-null viability vs mock (fraction of mock): 0.6
- parental viability vs mock (fraction of mock): 0.65
